Data set [1] relates to T1, R2 reverse transcriptase N-terminal truncation, endonuclease mutant KPA (P8 variant) KPD to KPA (endonuclease D to A, position not given) (Bombyx mori).
T1 sequence: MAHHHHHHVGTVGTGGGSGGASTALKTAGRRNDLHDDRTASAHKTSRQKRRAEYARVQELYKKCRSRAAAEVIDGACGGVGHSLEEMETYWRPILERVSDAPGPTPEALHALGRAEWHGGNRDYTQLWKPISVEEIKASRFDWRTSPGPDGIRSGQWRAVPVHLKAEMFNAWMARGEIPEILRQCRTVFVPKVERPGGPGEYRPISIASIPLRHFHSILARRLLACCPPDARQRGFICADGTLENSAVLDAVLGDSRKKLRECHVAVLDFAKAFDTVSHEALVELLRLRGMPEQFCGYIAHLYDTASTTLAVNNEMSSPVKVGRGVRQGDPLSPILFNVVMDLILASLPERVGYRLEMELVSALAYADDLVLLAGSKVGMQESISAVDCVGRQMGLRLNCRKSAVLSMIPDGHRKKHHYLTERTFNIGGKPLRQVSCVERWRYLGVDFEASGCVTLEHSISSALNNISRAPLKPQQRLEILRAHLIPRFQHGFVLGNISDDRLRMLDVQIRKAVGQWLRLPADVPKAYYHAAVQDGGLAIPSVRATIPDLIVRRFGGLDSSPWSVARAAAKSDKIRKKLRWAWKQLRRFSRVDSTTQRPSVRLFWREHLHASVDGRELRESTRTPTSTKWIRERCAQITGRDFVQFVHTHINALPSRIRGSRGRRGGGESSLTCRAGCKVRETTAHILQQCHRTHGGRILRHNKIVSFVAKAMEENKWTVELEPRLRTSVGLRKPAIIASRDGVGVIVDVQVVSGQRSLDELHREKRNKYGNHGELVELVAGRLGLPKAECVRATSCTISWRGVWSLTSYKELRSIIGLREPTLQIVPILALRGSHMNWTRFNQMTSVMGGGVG
In words: activity assay. To be noted: purified recombinant protein, protein details: N-terminal His6.

Data set [2] concerns T2, R2 reverse transcriptase N-terminal truncation (P2 variant) (Bombyx mori).
T2 sequence: T1 sequence with A736D
In words: activity assay. To be noted: purified recombinant protein, protein details: N-terminal His6.

Substitutions are numbered along the chain they refer to. Tags and fusion partners may be left off the protein sequences shown. For some assays here: For at least one entry, the source does not settle the construct or the ends of the probe.

Take “CTGCAGTAATACGACTCACTATAGGATCCTCTAGAGTCGACCTGCAGGCATGCAAGCTTGGCACTGGCCGTCGTTTTACAACGTCGTGACTGGGAAAACCCTGGCGTTACCCAACTTAATCGCCTTGCAGCACATCCCCCTTTCGCCAGCTGGCGTAATAGCGAAGAGGCCCGCACCGATCGCCCTTCCCAACAGTTGCGCAGCCTGAATGGCGAATGGC [200 bp DNA fragment, heat denatured]”: in data set [1] (captured as jump acceptor from RNA priming or RNA donor P173/P174, 6-160 pg DNA, single-stranded DNA), the “activity on this sequence” value is “active”. As to “AATGATACGGCGACCACCGAGATCTACACTCTTTCCCTACACGACGCTCTTCCGATCT [P188 ssDNA acceptor]”, the “activity on this sequence” value in data set [1] (acceptor from P173/P174 donor, detected down to 500 fM DNA, single-stranded DNA) is given as “active”. As for “GGAUCCUCUAGAGUCGACCUGCAGGCAUGCAAGCUUGGCACUGGCCGUCGUUUUACAACGUCGUGACUGGGAAAACCCUGGCGUUACCCAACUUAAUCGCCUUGCAGCACAUCCCCCUUUCGCCAGCUGGCGUAAUAGCGAAGAGGCCCGCACCGAUCGCCCUUCCCAACAGUUGCGCAGCCUGAAUGGCGAAUGGCGCCUGAUGCGGUAUUUUCUCCUUACGCAUCUGUGCGGUAUUUCACACCGCAUAUGGUGCACUCUCAGUACAAUCUGCUCUGAUGCCGCAUAGUUAAGCCAGCCCCGACACCCGCCAACACCCGCUGACGCGCCCUGACGGGCUUGUCUGCUCCCGGCAUCCGCUUACAGACAAGCUGUGACCGUCUCCGGGAGCUGCAUGUGUCAGAGGUUUUCACCGUCAUCACCGAAACGCGCGAGACGAAAGGGCCUCGUGAUACGCCUAUUUUUAUAGGUUAAUGUCAUGAUAAUAAUGGUUUCUUAGACGUCAGGUGGCACUUUUCGGGGAAAUGUGCGCGGAACCCCUAUUUGUUUAUUUUUCUAAAUACAUUCAAAUAUGUAUCCGCUCAUGAGACAAUAA / CAGGGTTATTGTCTCATGAGCG [600 nt RNA template/P172 primer]”, in data set [1] (cDNA with jump to P173, down to 0.00025 uM template, superior conversion to MMLV, DNA:RNA …), the “activity on this sequence” value is on record as “active”.

Turning to “GGAUCCUCUAGAGUCGACCUGCAGGCAUGCAAGCUUGGCACUGGCCGUCGUUUUCAACGUCGUGACUGGGAAAACCCUGGCGUUACCCAACUUAAUCGCCUUGCAGCACAUCCCCCUUUCGCCAGCUGGCGUAAUAGCGAAGAGGCCCGCACCGAUCGCCCUUCCCAACAGUUGCGCAGCCUGAAUGGCGAAUGGC / CACGACGTTGTAAAACGACGGC [200 nt RNA template/P187 primer]”, in data set [2] (cDNA synthesis with jump to P173 acceptor, PCR detected, 30 C, DNA:RNA hybrid), the “activity on this sequence” value was “active”. Turning to “GTTAATAACGAAATGAGCAGCCGGG [P181 TSO acceptor]”, the “activity on this sequence” value in data set [1] (last three G are ribonucleotides, acceptor for template jumping from P173/P174, dependent on acceptor concentration) is reported as “active”. In the case of “AATGATACGGCGACCACCGAGATCTACACTCTTTCCCTACACGACGCTCTTCCGATCT / AGATCGGAAGAGCGTCGTGTAG [P188 DNA template/P189 primer]”, in data set [2] (DNA-templated extension and template jumping onto P188, 30 C), the “activity on this sequence” value is on record as “active”.

Take “CAGUCAGUCAGUCAGUCAGUGCCAAAUGCCUCGUCAUC / TGATGACGAGGCATTTGGC [P173 RNA template/P174 DNA primer]”: the “activity on this sequence” value in data set [2] (extension and template jumping onto P173, optimum 300 mM NaCl, 5 mM MgCl2, room temperature, label: 5'-FAM on P174, DNA:RNA hybrid) is reported as “active”; in data set [1] (primer extension, 30 C, 1 h, label: 5'-FAM on P174, DNA:RNA hybrid) it was “active”.

For the origin of these results see patent publication US20190071711.
